Data published in article PMC6525254.
Results are given in words; binding and its absence hold for the method and conditions named. In cells and extracts the contact can be indirect. Some binding calls cover weakened binding; strength is not graded here.

By UniProt entry, the sequences of proteins in these tests, tags left out. Where a name states a change or a piece, a line headed by the entry shows the natural chain unless it says otherwise. Chains listed by the source or under a name are the forms on record and can include a tag or linker.
paxillin (human (endogenous in HASM cells)) (P49023, form named): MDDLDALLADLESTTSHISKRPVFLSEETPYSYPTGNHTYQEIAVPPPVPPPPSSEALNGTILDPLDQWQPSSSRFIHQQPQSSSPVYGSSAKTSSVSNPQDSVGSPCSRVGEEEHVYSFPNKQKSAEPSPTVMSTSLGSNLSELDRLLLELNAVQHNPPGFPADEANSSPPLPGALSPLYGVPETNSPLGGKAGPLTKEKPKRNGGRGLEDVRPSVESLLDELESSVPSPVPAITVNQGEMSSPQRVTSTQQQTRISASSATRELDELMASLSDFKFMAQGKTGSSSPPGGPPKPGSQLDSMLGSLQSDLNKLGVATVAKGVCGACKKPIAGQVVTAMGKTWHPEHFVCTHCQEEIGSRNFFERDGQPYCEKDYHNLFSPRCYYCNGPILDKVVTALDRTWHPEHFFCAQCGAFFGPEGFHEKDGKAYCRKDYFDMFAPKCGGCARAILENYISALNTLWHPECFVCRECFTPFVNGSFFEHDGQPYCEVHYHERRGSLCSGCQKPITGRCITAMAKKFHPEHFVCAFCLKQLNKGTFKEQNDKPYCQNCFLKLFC
UniProt P53350: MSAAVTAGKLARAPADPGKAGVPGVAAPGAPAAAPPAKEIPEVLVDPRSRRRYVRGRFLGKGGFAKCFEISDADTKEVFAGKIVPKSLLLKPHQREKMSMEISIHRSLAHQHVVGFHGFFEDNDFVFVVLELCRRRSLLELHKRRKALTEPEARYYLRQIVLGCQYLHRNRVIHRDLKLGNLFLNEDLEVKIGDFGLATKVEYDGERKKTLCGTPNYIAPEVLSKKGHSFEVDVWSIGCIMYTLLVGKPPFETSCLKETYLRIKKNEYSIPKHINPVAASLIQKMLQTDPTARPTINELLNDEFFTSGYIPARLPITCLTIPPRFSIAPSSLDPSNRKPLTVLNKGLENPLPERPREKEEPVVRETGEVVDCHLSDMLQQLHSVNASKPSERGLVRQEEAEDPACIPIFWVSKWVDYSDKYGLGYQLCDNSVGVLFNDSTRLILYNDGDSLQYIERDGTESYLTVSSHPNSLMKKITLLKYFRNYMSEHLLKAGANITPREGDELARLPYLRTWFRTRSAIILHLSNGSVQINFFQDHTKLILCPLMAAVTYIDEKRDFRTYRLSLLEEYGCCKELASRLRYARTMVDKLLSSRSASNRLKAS

Target: paxillin (human (endogenous in HASM cells)) (UniProt P49023)
Experiment: co-IP; HASM cell extracts immunoprecipitated with paxillin antibody; membranes blotted for paxillin, stripped and reblotted for Plk1

In the case of “polo-like protein kinase 1 (Plk1) (from UniProt P53350 1-603)”, the binding is reported as “binds”.
